The list shows a part of the results. These are further read-outs of the screen, such as a control signal, another cell line or another target. No call is given for them. Compounds called inactive in the main read-out are mostly missing here. The note in brackets gives the kind of curve behind each potency; many fits are weak.
Assay: qHTS Assay to Find Inhibitors of Chronic Active B-Cell Receptor Signaling
Settings: ABC-DLBCL IkBa-CBG/CBR reporter, luminescence ratio (green luciferase fused to IkBa over red control in TMD8 lymphoma cells), 4 h
In short: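 Doxycycline induced both beetle luciferases in TMD8 lymphoma cells; IKK-driven degradation limits the IkappaBalpha-fused green signal, while red luminescence normalises for cell number and nonspecific effects. Compounds tested up to 46 uM, 4 hrs.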

[1] = measured here: CBR red luminescence, cell number

Structure (SMILES)	AC50 [1]	AC50 (measured here: IkBa-CBG green luminescence)
O=c1[nH]c(-c2ccc(Cl)cc2)cs1	25.1 µM [rising, single point]	–
Cc1cc(NS(=O)(=O)c2ccc(Nc3nc(-c4sc(C)nc4C)cs3)cc2)no1	0.00461 µM [rising, full curve, poor fit]	–
COc1ccc2nc(C)cc(NCc3ccc(F)cc3)c2c1	7.08 µM [falling, partial curve, poor fit]	–
Cc1nn(-c2ccccc2)c2c1C1(C(=O)N(C)c3ccccc31)C(C#N)=C(N)O2 (stereo not given)	16.4 µM [falling, partial curve, poor fit]	–
O=C(/C=C/c1ccco1)Nc1ccc(CN2CCOCC2)cc1	35.5 µM [falling, single point]	–
Cc1ccc(N(NC(=O)C(O)(c2ccccc2)c2ccccc2)C(=O)CCl)cc1	10.3 µM [falling, partial curve]	–
Cc1noc(C)c1CSc1nc2ccccc2n1CCc1ccccc1	0.517 µM [rising, full curve, poor fit]	–
Oc1c(C(Nc2nccs2)c2ccc(C(F)(F)F)cc2)ccc2cccnc12 (stereo not given)	0.631 µM [falling, full curve, poor fit]	–
CC(=O)CCC(=O)N1CCCC(N2CCN(c3cccc(Cl)c3)CC2)C1 (stereo not given)	17.8 µM [rising, partial curve, poor fit]	–
O=C(NCCc1ccc2c(c1)OCCO2)c1cc(S(=O)(=O)N2CCCC2)ccc1Cl	6.51 µM [rising, partial curve, poor fit]	–
CCOC(=O)c1cc(C#N)c(Oc2ccccc2)nc1-c1ccccc1	1.3 µM [rising, full curve]	–
CCCCOc1ccc(C(=O)Nc2ccc(S(=O)(=O)Nc3onc(C)c3C)cc2)cc1	12.6 µM [falling, single point]	–
Cc1ccc(-n2c(SCc3ccccc3F)nc3[nH]ncc3c2=O)cc1C	22.4 µM [falling, single point]	–
CC(Cc1cccs1)NC(=O)Nc1ccccc1 (stereo not given)	5.62 µM [rising, single point]	–
O=C(OCC(=O)N1N=C(c2ccc(Cl)cc2)CC1c1ccco1)c1cccnc1 (stereo not given)	5.17 µM [falling, single point]	–
CCOC(=O)CN1C(=O)N(CC)C(C)=C(C(=O)OC)[C@@H]1c1ccccc1	35.5 µM [rising, single point]	–
CCNC(=O)COC(=O)c1ccc(-c2nc3ccccc3s2)s1	6.31 µM [falling, single point]	–
O=C(Nc1ccccc1)c1cc(-c2ccccc2Cl)no1	2.51 µM [falling, partial curve]	–
CCc1c(O)nc(SCC(=O)Nc2nc3ccccc3s2)n(C2CCCCC2)c1=O	12.6 µM [falling, partial curve, poor fit]	–
O=C(Cc1ccc(Cl)cc1)Nc1ccccn1	0.316 µM [rising, full curve, poor fit]	–
COc1cccc(OCc2nnc(-c3cccs3)o2)c1	35.5 µM [falling, single point]	–
c1ccc(CSc2ncn(-c3ccccc3)n2)cc1	12.6 µM [falling, single point]	–

Structure (SMILES)	AC50 [1]	AC50 (measured here: IkBa-CBG green luminescence)
CC1CN(c2cc(=O)n(-c3ccccc3)c(=O)[nH]2)CC(C)O1 (stereo not given)	11.6 µM [rising, partial curve, poor fit]	–
CC1=CC(=C(C#N)c2nc3ccccc3s2)C=C(C)N1Cc1ccco1	20 µM [rising, single point]	–
CCn1c(C)cc(/C=C2\NC(=O)N(CC(=O)Nc3ccc(F)cc3)C2=O)c1C	35.5 µM [rising, single point]	–
C=CCSc1nnc2nc3c(nn12)c1cc(C)ccc1n3CC=C	8.91 µM [rising, partial curve, poor fit]	–
Oc1ccc(-c2nnc(Nc3ccccc3)c3ccccc23)cc1	–	3.98 µM [falling, partial curve, poor fit]
O=C(CSc1nc2c(c(=O)[nH]1)CN(Cc1ccc(F)cc1)CC2)Nc1ccc(F)cc1	32.6 µM [falling, partial curve, poor fit]	–
Cc1ccc(S(=O)(=O)Cn2nnnc2C(c2ccc(F)cc2)N2CCC(C(N)=O)CC2)cc1 (stereo not given)	23.1 µM [rising, partial curve, poor fit]	–
Oc1ccccc1C=Nc1ccccc1-c1nc2ccccc2[nH]1	7.31 µM [falling, partial curve]	–
O=C(NCC1CCCO1)c1cccc(NC(=O)c2cccs2)c1 (stereo not given)	35.5 µM [falling, single point]	–
C[C@]1(C(=O)NCCc2c[nH]c3ccccc23)C=C[C@@H](Cc2ccccc2)N1C(=O)c1ccccc1	23.1 µM [falling, partial curve, poor fit]	–
COc1ccc(C(=O)NC2=C(C#N)CCC2)cc1OC	2.06 µM [rising, partial curve, poor fit]	–
O=C(Nc1nccs1)c1ccc2nccnc2c1	20 µM [falling, partial curve, poor fit]	–
C/C(=N/NC(=O)c1ccc2nc[nH]c2c1)c1cccs1	1.64 µM [rising, partial curve, poor fit]	–
Cc1ccc(NC(=O)CN2CCN(Cc3ccccc3)CC2)c(Br)c1	35.5 µM [falling, single point]	–
CCOc1ccccc1-n1c(SCC(=O)NC(C)(C)C)nnc1-c1ccoc1C	35.5 µM [falling, single point]	–
CC(=O)Nc1ccc(NC(=O)C(C)OC(=O)CCCc2c[nH]c3ccccc23)cc1 (stereo not given)	25.9 µM [rising, partial curve, poor fit]	–
COc1cc2c(cc1NC(=O)CC1SC(N3CCCC3)=NC1=O)oc1ccccc12 (stereo not given)	25.1 µM [falling, single point]	–
CC(Cl)C(=O)c1ccc2c(c1)CCN2C(=O)C1CC1 (stereo not given)	7.08 µM [rising, partial curve]	–
Cc1cccc(NS(=O)(=O)c2cccc(C(=O)N3CCCCCC3)c2)c1	3.26 µM [rising, single point]	–
Cc1cc(C)n(C(=O)CNC(=O)c2cccc(Cl)c2)n1	20 µM [rising, partial curve, poor fit]	–
CCCSc1ccc(C(=O)Nc2ccc(F)cc2F)cn1	3.55 µM [falling, partial curve, poor fit]	–
O=C(/C=N/O)Nc1ccccc1C(=O)O	10.3 µM [falling, partial curve, poor fit]	–

Structure (SMILES)	AC50 [1]	AC50 (measured here: IkBa-CBG green luminescence)
CCOC(=O)c1ccc(Nc2cnc3ccccc3n2)cc1	0.1 µM [falling, full curve, poor fit]	–
C=C1CCC[C@]2(C)C[C@H]3OC(=O)C(CN(C)CC(OC)OC)[C@H]3CC12 (stereo not given in full)	11.2 µM [falling, partial curve]	–
O=C(NCC1CCCO1)c1ccc2nc(N3CCCCC3)sc2c1 (stereo not given)	4.61 µM [rising, single point]	–
COc1ccc(NC(=S)Nc2ccc(OC(F)F)cc2)cn1	3.98 µM [rising, single point]	–
CCCNC(=O)COC(=O)c1n[nH]c2ccccc12	0.794 µM [rising, full curve, poor fit]	–
Cc1nc(C)c(-c2nnc(-c3ccccc3Cl)o2)cc1C(=O)NN	0.398 µM [rising, full curve, poor fit]	–
COC(=O)c1cc2c(N)c(C(=O)c3ccccc3)sc2nc1C(OC)OC	6.31 µM [falling, partial curve]	–
CC(Nc1cc(N2CCN(S(=O)(=O)N(C)C)CC2)ccc1[N+](=O)[O-])c1ccccc1 (stereo not given)	11.2 µM [rising, partial curve, poor fit]	–
COC(=O)c1ccccc1NC1=C/C(=N\S(=O)(=O)c2cccs2)c2ccccc2C1=O	0.651 µM [falling, full curve]	–
COc1ccccc1/C=C1\SC(=O)N(CCC(=O)NNC(=O)c2ccccc2Cl)C1=O	0.0146 µM [falling, full curve, poor fit]	–
CCOC(=O)N1CCC(NCCNC(=O)c2ccc(Cl)cc2)CC1	29.1 µM [rising, single point]	–
O=[N+]([O-])c1ccccc1/C=C/C=N/n1c(-c2ccccc2F)n[nH]c1=S	7.08 µM [falling, full curve, poor fit]	–
Cc1ccc(CCNC(=O)CN2CCN(Cc3ccccc3F)C2=O)cc1	29.1 µM [falling, single point]	–
Cn1nnnc1Sc1ncnc2scc(-c3ccc(-c4ccccc4)cc3)c12	8.2 µM [falling, partial curve]	–
COc1ccc(Oc2ccc(NC(=O)c3ccccc3C)cc2)cc1	2 µM [rising, partial curve, poor fit]	–
COc1ccc(C2C3=C(CCCC3=O)NC3=C2C(=O)c2ccccc23)cc1 (stereo not given)	14.1 µM [rising, single point]	–
O=C(NCc1ccco1)Nc1ccc2nsnc2c1	16.4 µM [falling, partial curve]	–
COc1ccccc1N1CCN(C2CCC(C)CC2)CC1 (stereo not given)	1.26 µM [rising, full curve, poor fit]	–
COc1ccc(S(=O)(=O)N2CCCCCC2)cc1C(=O)Nc1ccccn1	1.26 µM [falling, full curve, poor fit]	–
OCC1(Cc2ccc(Cl)cc2)CCN(Cc2ccc3nsnc3c2)CC1	6.31 µM [falling, single point]	–
NC(=O)CC(NC(=O)c1ccc(Br)cc1)c1ccc(N2CCN(c3ccccc3)CC2)c([N+](=O)[O-])c1 (stereo not given)	35.5 µM [falling, single point]	–

In the list so far, 3 have a nitro group on carbon:
Structure (SMILES)	AC50 [1]	AC50 (measured here: IkBa-CBG green luminescence)
CC(Nc1cc(N2CCN(S(=O)(=O)N(C)C)CC2)ccc1[N+](=O)[O-])c1ccccc1 (stereo not given)	11.2 µM [rising, partial curve, poor fit]	–
O=[N+]([O-])c1ccccc1/C=C/C=N/n1c(-c2ccccc2F)n[nH]c1=S	7.08 µM [falling, full curve, poor fit]	–
NC(=O)CC(NC(=O)c1ccc(Br)cc1)c1ccc(N2CCN(c3ccccc3)CC2)c([N+](=O)[O-])c1 (stereo not given)	35.5 µM [falling, single point]	–

Source: PubChem BioAssay AID493014 (National Center for Advancing Translational Sciences (NCATS), 2011)
